Data published in the supplement of paper PMC3334620.
In all, about 33,000 sequences were measured (“E-score (-0.5 to 0.5)”: median about -0.015, highest 2% from about 0.3 on). The list shows a part of the results.

The sequences below were run against T1, Abf1 (UniProt P14164) (assay: PBM E-score (8-mer binding enrichment) (E-score (-0.5 to 0.5)); higher = stronger / more preferred TF binding). Conditions: protein concentration: 200 nM; construct: GST-full length.
T1 sequence: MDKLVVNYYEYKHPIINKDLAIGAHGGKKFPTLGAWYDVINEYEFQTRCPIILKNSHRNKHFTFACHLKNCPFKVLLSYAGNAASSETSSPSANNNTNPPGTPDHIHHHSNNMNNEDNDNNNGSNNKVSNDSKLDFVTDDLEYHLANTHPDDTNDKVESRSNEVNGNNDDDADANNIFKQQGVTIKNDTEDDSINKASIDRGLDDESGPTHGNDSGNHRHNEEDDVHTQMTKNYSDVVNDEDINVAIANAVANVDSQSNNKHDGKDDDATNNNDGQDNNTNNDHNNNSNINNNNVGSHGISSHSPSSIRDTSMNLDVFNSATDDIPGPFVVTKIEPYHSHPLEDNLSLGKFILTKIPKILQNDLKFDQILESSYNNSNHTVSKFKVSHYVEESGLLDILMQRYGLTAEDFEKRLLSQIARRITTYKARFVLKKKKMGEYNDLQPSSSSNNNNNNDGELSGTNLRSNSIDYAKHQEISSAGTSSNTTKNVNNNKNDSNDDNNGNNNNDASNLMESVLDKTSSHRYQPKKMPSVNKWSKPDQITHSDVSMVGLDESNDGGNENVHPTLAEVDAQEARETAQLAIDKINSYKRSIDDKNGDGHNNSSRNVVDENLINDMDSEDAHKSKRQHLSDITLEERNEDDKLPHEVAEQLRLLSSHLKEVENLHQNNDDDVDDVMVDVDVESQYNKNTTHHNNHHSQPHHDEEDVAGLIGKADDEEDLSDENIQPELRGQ
Outline: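 Detection of bound protein used fluorescent anti-GST, with scans normalised by masliner. The proteins were GST-tagged yeast transcription factors applied at about 100-200 nM to universal all-10-mer Agilent arrays made double-stranded by primer extension. Each ungapped eight-base word, pooled with its reverse complement, was scored with an E-score from the Universal PBM Analysis Suite.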

Row | Sequence | PBM E-score
1 | CACTAAAC | 0.139
2 | AAACGGCG | 0.206
3 | AGTGTAAT | 0.0847
4 | ACAATTTG | 0.11
5 | AAACTGTA | 0.0591
6 | GGTGGGGA | -0.108
7 | AAATATAA | 0.136
8 | CCACGAGG | 0.081
9 | CTGTCCAC | -0.0164
10 | ACTACAGC | -0.156
11 | AGTACAAT | 0.0906
12 | AGACTTGA | -0.0542
13 | GCATGCGC | -0.0816
14 | CGTCTCCC | 0.158
15 | AACACGCA | -0.0592
16 | TGTTGGAA | -0.0967
17 | CATGCCCC | -0.22
18 | GGCTCAAC | -0.0452
19 | AGCGGGTA | -0.215
20 | TGTGCAAA | -0.137
21 | CATATCTA | 0.162
22 | CCGAAATC | 0.0401
23 | CCCTTACG | -0.0713
24 | CGTCTTAC | 0.199
25 | GGGCAGAA | 0.0406

Row | Sequence | PBM E-score
26 | AGACGCAA | -0.044
27 | GCAGAGGC | -0.255
28 | AAATAACG | 0.171
29 | ATCGCCTG | -0.127
30 | CGGGCGAG | -0.0337
31 | CTCGTAGC | 0.0542
32 | ATCTGTTC | -0.016
33 | GGATTCTA | 0.029
34 | CACTTTAG | -0.178
35 | ATTGAGAC | 0.106
36 | GGATGTAA | 0.0326
37 | ATCGCAGG | 0.0596
38 | AGCAGATC | 0.0833
39 | ATATTTGC | 0.194
40 | GAGCGTGC | 0.0109
41 | AGAATCCG | -0.0715
42 | AATCTTCT | 0.0766
43 | TCGGGAGA | -0.127
44 | CAAGGAGG | -0.25
45 | ATGCCCCA | -0.153
46 | CGACTAGC | -0.0426
47 | CTGTCTTA | 0.0626
48 | AGACACGG | 0.11
49 | AGCCGAGA | -0.0902
50 | GGCACCCC | -0.299

Row | Sequence | PBM E-score
51 | AACATCTG | -0.0273
52 | CTGCGAAG | -0.0967
53 | AACAGAGC | -0.0439
54 | CTGTGACA | 0.179
55 | CCGCTGCA | -0.144
56 | ATCAGGAA | 0.0324
57 | ATAGACGC | -0.0898
58 | AAGATCAT | 0.289
59 | CTAAGTTA | 0.131
60 | CCTCTGAC | -0.306
61 | CGAGCCAC | -0.0571
62 | CAACAACC | 0.0708
63 | CGCGCAAG | -0.009
64 | TCCTCAGA | -0.125
65 | ACATTTTG | 0.0732
66 | ACGGTGTG | 0.119
67 | GTACGCTA | 0.0512
68 | ACAGAAGA | 0.152
69 | CCGAATAA | 0.156
70 | CCACAAAG | -0.0409
71 | ACCCACAT | -0.0894
72 | AGGGGATG | 0.00695
73 | AGATGCCG | 0.0033
74 | AAGTAGGC | -0.055
75 | ACGATGGA | 0.22

Row | Sequence | PBM E-score
76 | ACCGCGAG | -0.167
77 | TTAGTAAA | -0.00729
78 | GACTAGCC | -0.161
79 | CGGCCCAA | -0.144
80 | CGGAACCA | 0.129
81 | ATTGATGA | 0.187
82 | ACAACTAT | 0.112
83 | CATCTTAC | 0.0554
84 | TCTATAAA | 0.0905
85 | CCCATGCA | -0.0547
86 | ACACTAGA | 0.156
87 | ATAGTCGA | 0.0241
88 | CGGATATC | 0.22
89 | AGCATAGG | -0.188
90 | GCCATTAC | 0.0234
91 | CAGGCCCC | -0.234
92 | CATTCCGG | -0.207
93 | CCAATATA | -0.02
94 | ACCTATCG | 0.183
95 | ATGGCTTA | 0.0729
96 | TTCACGAA | 0.267
97 | ACAAGGGG | -0.272
98 | TACTTTAA | -0.0873
99 | AGGGCTTC | 0.0312
100 | ATCAAGAT | -0.116

Row | Sequence | PBM E-score
101 | GGCCGATA | 0.0259
102 | CAGCAATA | 0.057
103 | CCCCAGTC | -0.303
104 | AAGCTAGG | -0.232
105 | GCTATAGC | -0.324
106 | AATAAGCT | -0.00627
107 | ACCACCAT | -0.113
108 | GCCCTTTA | -0.206
109 | GCTTGTTA | 0.14
110 | CGTCTTGC | 0.0551
111 | GATTTAAA | -0.00246
112 | CGTCTTTA | 0.301
113 | ACCCCTTC | -0.192
114 | CATCGCCG | -0.0204
115 | CCACCGGC | -0.142
116 | GATTTTGC | -0.127
117 | GCGACACC | -0.189
118 | CCCTTGCC | -0.191
119 | CCGGGAAC | -0.12
120 | ATTCTTAA | 0.189
121 | ATCGGGTC | -0.0582
122 | CAGCACTC | -0.222
123 | ACCTCCAC | -0.11
124 | GAGGACAC | -0.21
125 | ACTGATCT | 0.0694

Row | Sequence | PBM E-score
126 | GCGAGAGA | -0.155
127 | CGTTAGAG | 0.104
128 | ATGTGGTA | 0.0111
129 | GCTATCCA | 0.00713
130 | ACATGCGA | 0.123
131 | GCGGCAAC | 0.0759
132 | GGCGAGGA | -0.186
133 | AGGATAGG | -0.183
134 | GAGTTATA | 0.0665
135 | TCGTCAGA | 0.125
136 | GCCATACC | -0.367
137 | CGGACTAG | -0.328
138 | CCCTTTTA | -0.067
139 | GAGCTTGC | -0.202
140 | ACAATTGG | -0.125
141 | AACATTTC | -0.031
142 | AAGTAGCC | -0.0764
143 | GACGTGGA | 0.0164
144 | AGAGAGAC | -0.152
145 | GCGAATTA | 0.131
146 | CTTGCGTC | -0.0741
147 | TAAAAGGA | 0.0454
148 | GGTAATCA | 0.16
149 | CCGACTCC | -0.176
150 | CCAAGCGC | 0.149

Row | Sequence | PBM E-score
151 | AAAGAAGC | 0.0334
152 | CCTCCTTC | -0.337
153 | AGTTTACA | -0.0916
154 | AAATCCAT | 0.0895
155 | AGCTACAG | -0.173
156 | ATGTGAAT | 0.0305
157 | ACAGCGCA | -0.101
158 | ATCCGGCG | 0.0064
159 | ATACGGAT | 0.297
160 | GGACTGCC | -0.249
161 | ATTAGCAC | -0.0543
162 | CCGACCGA | -0.109
163 | CTACCCCC | -0.358
164 | GAGCCGCA | -0.0431
165 | GAATCTGC | -0.234
166 | TCGCGGAA | 0.0001
167 | AGGTACCG | 0.0478
168 | CGAATTGC | -0.045
169 | GGACTATA | -0.0253
170 | TAGTCTGA | 0.0194
171 | AGCGGAGC | -0.207
172 | GGGCGTTA | -0.0753
